Among the data in US6824972 (BAYLOR COLLEGE OF MEDICINE, dated 2004) are binding values, retold here.

In the assay the target is T1, NF-κB p50 subunit (human), P19838.
T1 chain: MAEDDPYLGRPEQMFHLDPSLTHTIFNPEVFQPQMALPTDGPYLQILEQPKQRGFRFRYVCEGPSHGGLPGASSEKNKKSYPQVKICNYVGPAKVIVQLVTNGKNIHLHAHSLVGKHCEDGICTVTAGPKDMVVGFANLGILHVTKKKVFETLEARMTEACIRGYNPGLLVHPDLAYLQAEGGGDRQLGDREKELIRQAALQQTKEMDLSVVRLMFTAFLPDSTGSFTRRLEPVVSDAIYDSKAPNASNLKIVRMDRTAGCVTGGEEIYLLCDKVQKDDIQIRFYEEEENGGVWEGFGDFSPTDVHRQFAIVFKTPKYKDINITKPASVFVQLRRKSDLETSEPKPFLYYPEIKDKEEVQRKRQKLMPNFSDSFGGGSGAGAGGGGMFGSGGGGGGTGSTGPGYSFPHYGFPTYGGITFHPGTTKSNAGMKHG
Description: EMSA with supershift, nuclear extracts of TNF-stimulated normal and patient G embryonic fibroblasts, 32P-labelled MHC-1 probe; called the p50/p50 complex in the same paragraph. The note with it: remark: other sources report otherwise. A general note: In EMSA bound probe runs differently from free probe, usually more slowly.

No constants are given. Whether binding was seen depends on the method and setting. Some entries that bind do so weakly or less than the wild type.

B1: NF-κB p50 subunit (other, human, UniProt P19838 1-433, looked up)
chain: T1 chain
Take B1: the binding result is “binds”.
